Test results as given in publication PMC11106511.

Target: c-Myc (human (endogenous in SH-SY5Y and SK-N-BE(2))), P01106
Assay: affinity purification with mass spectrometry; immunoprecipitation with c-Myc antibody from SH-SY5Y cell lysates, SDS-PAGE, Coomassie staining, mass spectrometry
Settings: remark: other sources report otherwise

B1: lamin A (LMNA), P02545 1-646 (protein)
chain: METPSQRRATRSGAQASSTPLSPTRITRLQEKEDLQELNDRLAVYIDRVRSLETENAGLRLRITESEEVVSREVSGIKAAYEAELGDARKTLDSVAKERARLQLELSKVREEFKELKARNTKKEGDLIAAQARLKDLEALLNSKEAALSTALSEKRTLEGELHDLRGQVAKLEAALGEAKKQLQDEMLRRVDAENRLQTMKEELDFQKNIYSEELRETKRRHETRLVEIDNGKQREFESRLADALQELRAQHEDQVEQYKKELEKTYSAKLDNARQSAERNSNLVGAAHEELQQSRIRIDSLSAQLSQLQKQLAAKEAKLRDLEDSLARERDTSRRLLAEKEREMAEMRARMQQQLDEYQELLDIKLALDMEIHAYRKLLEGEEERLRLSPSPTSQRSRGRASSHSSQTQGGGSVTKKRKLESTESRSSFSQHARTSGRVAVEEVDEEGKFVRLRNKSNEDQSMGNWQIKRQNGDDPLLTYRFPPKFTLKAGQVVTIWAAGAGATHSPPTDLVWKAQNTWGCGNSLRTALINSTGEEVAMRKLVRSVTVVEDDEDEDGDDLLHHHHGSHCSSSGDPAEYNLRSRTVLCGTCGQPADKASASGSGAQVGGPISSGSSASSVTVTRSYRSVGGSGGGSFGDNLVTRSY
- binding: binds

Results are given in words; binding and its absence hold for the method and conditions named. Binding seen in cells or lysates may run through a third protein. These calls come from enrichment with a bait or labelling near it, and not all partners need be listed.
